{"sequences": {"note": "By UniProt entry, the sequences of proteins in these tests, tags left out. Where a name states a change or a piece, a line headed by the entry shows the natural chain unless it says otherwise.", "UniProt P18054": "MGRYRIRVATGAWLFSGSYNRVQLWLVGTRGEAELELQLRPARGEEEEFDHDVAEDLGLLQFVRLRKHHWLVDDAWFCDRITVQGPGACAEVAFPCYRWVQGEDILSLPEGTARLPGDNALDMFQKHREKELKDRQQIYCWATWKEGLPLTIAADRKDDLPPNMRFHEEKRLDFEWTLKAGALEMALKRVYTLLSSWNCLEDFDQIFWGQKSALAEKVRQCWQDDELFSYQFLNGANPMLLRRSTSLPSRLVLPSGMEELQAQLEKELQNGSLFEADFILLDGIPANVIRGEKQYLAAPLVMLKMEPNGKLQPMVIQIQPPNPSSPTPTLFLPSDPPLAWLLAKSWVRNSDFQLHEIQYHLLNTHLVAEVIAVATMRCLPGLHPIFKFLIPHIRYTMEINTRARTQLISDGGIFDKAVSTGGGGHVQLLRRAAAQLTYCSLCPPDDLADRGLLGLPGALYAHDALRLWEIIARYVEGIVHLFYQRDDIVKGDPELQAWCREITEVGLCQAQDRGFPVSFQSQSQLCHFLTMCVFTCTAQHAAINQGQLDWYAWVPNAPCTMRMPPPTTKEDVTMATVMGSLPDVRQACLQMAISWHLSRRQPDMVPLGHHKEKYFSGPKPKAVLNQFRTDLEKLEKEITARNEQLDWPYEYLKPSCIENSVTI"}, "source": "PubChem BioAssay AID1671190", "about": "(National Center for Advancing Translational Sciences (NCATS), 2021)", "note": "“And” between values parts separate entries of the source, which are not always exact repeats. Identical values can stand only once. Out of some 580,000 compounds screened, about 6,100 (1.1%) were called active. Inconclusive results, whose numbers are uncertain, are shown with a selection of clear calls. Calls come from the whole dose curve; as a rule, active = well fitted inhibition curve with a large enough effect; inconclusive = small, poorly fitted or top-dose-only effect, or another doubt; inactive = no such curve, though single readings can be large or run the other way. Potencies of inconclusive entries are doubtful fits and often do not repeat. % is set by controls: 0 for no effect and ±100 for the full control effect; potency is the fitted concentration of half-maximal effect."}
{"molecular_target": "Polyunsaturated fatty acid lipoxygenase ALOX12 (Homo sapiens) (UniProt P18054)", "assay": "Primary qHTS assay for inhibitors of human arachidonate 12S-lipoxygenase (ALOX12): Round 2", "conditions": "purified 12hLO, xylenol orange hydroperoxide absorbance; activity change, negative = inhibition: at 108 µM (top of the series) unless noted", "procedure,_shortened": "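Purified human 12hLO at 150 nM in 25 mM Hepes, 0.01% Triton X-100, pH 7.0, preincubated 15 min at room temperature with compound. Reaction started with 40 uM arachidonic acid, 30 min at room temperature. Hydroperoxide measured by Fe-xylenol orange, 573/405 nm absorbance ratio.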"}
{"compound": "O=C(OCc1cncs1)c1ccccc1", "Potency": "inactive"}
{"compound": "C/C(=N\\Nc1ccc(Cl)cc1C)c1cc2ccccc2s1", "Potency": "inconclusive: 7.94 µM [inhibitor, full curve, poor fit]"}
{"compound": "COc1ccc(OC)c(C2CC(=O)N3CN(c4ccccc4)CSC3=C2C#N)c1", "note": "(stereo not drawn)", "Potency": "inconclusive: 50.1 µM [inhibitor, partial curve, poor fit]"}
{"compound": "COc1ccc(CNC(=O)c2ccccc2C(F)(F)F)cc1C(=O)O", "Potency": "inactive"}
{"compound": "COc1ccc(NC(=O)N/C=C/c2ccco2)cc1", "Potency": "inconclusive: 17.8 µM [inhibitor, full curve, poor fit]"}
{"compound": "COc1ccc(-c2nnc(Nc3nc4c(OC)cccc4s3)o2)c(OC)c1", "Potency": "inactive"}
{"compound": "Cc1cc(O)c(C(C)C)cc1N=Cc1ccc([N+](=O)[O-])cc1", "Potency": "inconclusive: 39.8 µM [inhibitor, partial curve, poor fit]"}
{"compound": "O=C1CO[C@H]2CCN(Cc3cccs3)CC[C@@H]2N1Cc1ccccc1", "Potency": "inactive"}
{"compound": "CCCC1Cc2c(sc3nc(SCc4ccccc4)nc(N)c23)CO1", "note": "(stereo not drawn)", "Potency": "inconclusive: 100 µM [inhibitor, single point]"}
{"compound": "CCN(CC)C(=O)Cn1cc(C(=O)C(=O)NCCCn2ccnc2)c2ccccc21", "Potency": "inactive"}
{"compound": "Cc1cccc(-c2cc(=O)c3cc(NC(=O)c4ccccc4C)ccc3o2)c1", "Potency": "inconclusive: 89.1 µM [inhibitor, partial curve, poor fit]"}
{"compound": "CN1c2ccccc2C(C)(C)[C@]12C=Cc1cc(O)ccc1O2", "Potency": "inactive"}
{"compound": "CCn1c(C(=O)N2CCc3ccccc3C2)cc2oc3ccccc3c21", "Potency": "inactive"}
{"compound": "COc1cccc(NC(=O)CN(c2ccccc2OC)S(=O)(=O)c2cccs2)c1", "Potency": "inconclusive: 126 µM [inhibitor, single point]"}
{"compound": "COc1ccc(CNC(=O)CCS(=O)(=O)c2cc3c4c(c2)CCN4C(=O)CC3)cc1OC", "Potency": "inconclusive: 50.1 µM [inhibitor, partial curve, poor fit]"}
{"compound": "COc1ccc(Cn2c3ccc(OC)cc3c3nc4ccccc4nc32)cc1", "Potency": "inconclusive: 14.1 µM [inhibitor, partial curve, poor fit]"}
{"compound": "CNCC(=O)N1CCc2ncnc(N3CCSCC3)c2CC1", "Potency": "inactive"}
{"compound": "O=S(=O)(c1ccc(F)cc1)N1CCCC(Cc2noc(-c3cccnc3)n2)C1", "note": "(stereo not drawn)", "Potency": "inactive"}
{"compound": "Cc1ccccc1-n1c(=O)c2ccccc2n2cnnc12", "Potency": "inconclusive: 28.2 µM [inhibitor, partial curve, poor fit]"}
{"compound": "Cc1ccc(-c2nc(Cn3c(=O)c(C#N)cn(C4CC4)c3=O)co2)c(C)c1", "Potency": "inconclusive: 50.1 µM [inhibitor, partial curve, poor fit]"}
{"compound": "C=CCSC1=NC(=O)/C(=C/c2cccs2)S1", "Potency": "inconclusive: 31.6 µM [inhibitor, partial curve, poor fit]"}
{"compound": "Cc1ccc(C)c(-c2csc(Nc3ccc(S(=O)(=O)Nc4nc(C)cc(C)n4)cc3)n2)c1", "Potency": "active: 44.7 µM"}
{"compound": "Cn1c(=O)c2c(nc(NCc3ccc4c(c3)OCO4)n2Cc2c(F)cccc2Cl)n(C)c1=O", "Potency": "inactive"}
{"compound": "O=C(CSc1nc(-c2ccco2)nc2ccccc12)NCCc1ccccc1", "Potency": "inconclusive: 89.1 µM [inhibitor, partial curve, poor fit]"}
{"compound": "COCc1cccc(C(=O)NCCC(C)C)c1", "Potency": "inconclusive: 50.1 µM [inhibitor, partial curve, poor fit]"}
{"compound": "Cc1nc2cc(NS(=O)(=O)c3ccc(C(C)(C)C)cc3)ccc2o1", "Potency": "inconclusive: 126 µM [inhibitor, partial curve, poor fit]"}
{"compound": "O=C(Nc1cc(Cl)ccc1O)c1cc(-c2ccc3c(c2)OCO3)on1", "activity change, negative = inhibition": "inconclusive: -36% [inhibitor]"}
{"compound": "COCCNc1oc(-c2ccc(S(=O)(=O)N3CCC(C)CC3)cc2)nc1C#N", "Potency": "inactive"}
{"compound": "S=c1sc2c(s1)SCC1(CS2)OCCO1", "Potency": "inconclusive: 28.2 µM [inhibitor, full curve, poor fit]"}
{"compound": "O=c1[nH]c2cc3c(cc2cc1CN1CC[C@H](O)C1)OCO3", "Potency": "inactive"}
{"compound": "COc1cc(CN2CCC(CO)(Cc3cccc(C(F)(F)F)c3)CC2)ccc1F", "Potency": "inactive"}
{"compound": "CCOC(=O)c1c(C)[nH]c(CCC(=O)NCc2cc(Br)ccc2OC)c1C", "Potency": "inconclusive: 112 µM [inhibitor, partial curve, poor fit]"}
{"compound": "O=C(O)CSc1ncnc2scc(-c3ccc(Br)cc3)c12", "Potency": "inactive"}
{"compound": "CC(=O)c1ccc(NC2OC(C)C(O)C(O)C2O)cc1", "note": "(stereo not drawn)", "Potency": "inconclusive: 44.7 µM [inhibitor, partial curve, poor fit]"}
{"compound": "CCc1nnc(NC(=O)CN2CCN(Cc3ccc(C)cc3)CC2)s1", "Potency": "inactive"}
{"compound": "CCOC(=O)C1(CC2CCCCO2)CCN(S(=O)(=O)c2cccc(F)c2)CC1", "note": "(stereo not drawn)", "Potency": "inactive"}
{"compound": "O=C(NCCOc1ccccc1)c1cc(S(=O)(=O)N2CCOCC2)ccc1F", "Potency": "inactive"}
{"compound": "CC(=O)Nc1ccc(SC[C@H](CC(C)C)N2CCN(CC(C)C)CCC2=O)cc1", "Potency": "inactive"}
{"compound": "O=C(NCc1cccs1)c1ccc2c(c1)sc1nc(-c3ccccc3)cn12", "Potency": "inconclusive: 50.1 µM [inhibitor, partial curve, poor fit]"}
{"compound": "Cc1ccc(N(Cc2cc3ccccc3[nH]c2=O)C(=O)C(C)(C)C)cc1C", "Potency": "inconclusive: 4.47 µM [inhibitor, partial curve, poor fit]"}
{"compound": "CC(C)c1ccc(-c2noc(SCC(=O)N3CCN(c4ccccc4F)CC3)n2)cc1", "Potency": "inconclusive: 112 µM [inhibitor, partial curve, poor fit]"}
{"compound": "O=C(Nc1ccccc1)c1cc(-c2ccco2)nc2ccccc12", "Potency": "inconclusive: 1.78 µM [inhibitor, full curve, poor fit]"}
{"compound": "CCN(c1ccccc1)S(=O)(=O)c1ccc(C(=O)N2CCN(c3ccccc3)CC2)cc1", "Potency": "inconclusive: 126 µM [inhibitor, single point]"}
{"compound": "C=CCn1c(N)c(C(=O)NCC2CCCO2)c2nc3ccccc3nc21", "note": "(stereo not drawn)", "Potency": "inactive"}
{"compound": "COc1ccc(Cn2ccn(CC(=O)Nc3cc(C)ccc3C)c(=O)c2=O)cc1", "Potency": "inconclusive: 56.2 µM [inhibitor, partial curve, poor fit]"}
{"compound": "O=C(O)/C=C/C(=O)NCCc1ccc(Cl)cc1", "Potency": "inconclusive: 100 µM [inhibitor, partial curve, poor fit]"}
{"compound": "COc1ccc(NS(=O)(=O)c2cc(-c3cnc(C)o3)ccc2C)cc1OC", "Potency": "inconclusive: 56.2 µM [inhibitor, partial curve, poor fit]"}
{"compound": "O=C(COC(=O)c1cnccn1)Nc1ccc(Cl)cc1C(F)(F)F", "Potency": "active: 10 µM and inconclusive: 126 µM [inhibitor, single point]"}
{"compound": "COc1ccc(N(C(=O)CSCC(=O)Nc2cc(C)on2)C(C(=O)NC2CCCCC2)c2ccc(O)c(O)c2)cc1", "note": "(stereo not drawn)", "Potency": "inconclusive: 35.5 µM [inhibitor, partial curve]"}
{"compound": "O=Nc1c(O)n(Cc2ccc(Cl)cc2Cl)c2ccccc12", "Potency": "inconclusive: 44.7 µM [inhibitor, partial curve, poor fit]"}
{"compound": "Cc1cccc(C(=O)NC(=S)NNC(=O)c2cccs2)c1", "Potency": "inconclusive: 39.8 µM [inhibitor, partial curve]"}
{"compound": "CN1CCN(S(=O)(=O)c2ccc(NC(=S)NC(=O)c3ccc(Cl)cc3)cc2)CC1", "Potency": "inconclusive: 35.5 µM [inhibitor, single point]"}
{"compound": "Cc1cc(C)cc(C(=O)NC2C(=O)N3C(C(=O)O)=C(CSc4nnc(C)s4)CSC23)c1", "note": "(stereo not drawn)", "Potency": "active: 39.8 µM"}
{"compound": "COc1ccccc1CNc1ccnc(-c2ccc(C(=O)N(C)C)cc2)n1", "Potency": "inconclusive: 7.94 µM [inhibitor, partial curve, poor fit]"}
{"compound": "CCS(=O)(=O)N1Cc2ccccc2CC1C(=O)N1CCN(c2ccccc2)CC1", "note": "(stereo not drawn)", "Potency": "inactive"}
{"compound": "CCCCNC(=S)Nc1ccc([N+](=O)[O-])cc1", "Potency": "inconclusive: 89.1 µM [inhibitor, partial curve, poor fit]"}
{"compound": "CC(C)(C)n1nc2c(c1NC(=O)c1ccco1)CS(=O)C2", "note": "(stereo not drawn)", "Potency": "inconclusive: 31.6 µM [inhibitor, single point]"}
{"compound": "Cc1cc(C)c2cc(CN(CCO)C(c3nnnn3Cc3ccc(F)cc3)C(C)C)c(=O)[nH]c2c1", "note": "(stereo not drawn)", "Potency": "inconclusive: 31.6 µM [inhibitor, single point]"}
{"compound": "NNC(=O)Cn1c(-c2ccccc2)cc(=O)n2ncnc12", "Potency": "inconclusive: 126 µM [inhibitor, single point]"}
{"compound": "COc1cc(OC)c(OC)cc1/C=C(/C#N)c1nc2ccccc2[nH]1", "Potency": "inactive"}
{"compound": "S=c1[nH]nc(COc2ccccc2)n1/N=C/c1ccccc1Br", "Potency": "inconclusive: 7.08 µM [inhibitor, full curve, poor fit]"}
{"compound": "Cc1cc2oc(=O)cc(CN3CCC4(CC3)OCCO4)c2cc1C", "Potency": "inconclusive: 112 µM [inhibitor, partial curve, poor fit]"}
{"compound": "COc1ccc(N2Cc3c(NCC4CCCCC4)ncnc3N(C)CC2=O)cc1", "Potency": "inactive"}
{"compound": "Cc1cc(C)c2nc(SCC(=O)NCC(C)C)cc(C)c2c1", "Potency": "inconclusive: 50.1 µM [inhibitor, single point]"}
{"compound": "Cc1cc2c(cc1C)C(=O)C(Br)=C(N)C2=O", "Potency": "inconclusive: 56.2 µM [inhibitor, partial curve, poor fit]"}
{"compound": "O=C(NC(=S)Nc1ccccc1N1CCCCC1)c1ccco1", "Potency": "inconclusive: 6.31 µM [inhibitor, full curve, poor fit]"}
{"compound": "NC(=O)CSC1=Nc2ccccc2C2=NC(CCC(=O)NCc3ccc(F)cc3)C(=O)N12", "note": "(stereo not drawn)", "Potency": "inconclusive: 6.31 µM [inhibitor, partial curve, poor fit]"}
{"compound": "CCN(CCCNC(=O)CNC(=O)c1nn(-c2ccc(OC)c(OC)c2)c(=O)c2ccccc12)c1ccccc1", "Potency": "inactive"}
